Consider 23 targets from the supplement of paper PMC10849652.

By UniProt entry, the sequences of proteins in these tests, tags left out. Where a name states a change or a piece, a line headed by the entry shows the natural chain unless it says otherwise.
UniProt O75563, whole entry, looked up: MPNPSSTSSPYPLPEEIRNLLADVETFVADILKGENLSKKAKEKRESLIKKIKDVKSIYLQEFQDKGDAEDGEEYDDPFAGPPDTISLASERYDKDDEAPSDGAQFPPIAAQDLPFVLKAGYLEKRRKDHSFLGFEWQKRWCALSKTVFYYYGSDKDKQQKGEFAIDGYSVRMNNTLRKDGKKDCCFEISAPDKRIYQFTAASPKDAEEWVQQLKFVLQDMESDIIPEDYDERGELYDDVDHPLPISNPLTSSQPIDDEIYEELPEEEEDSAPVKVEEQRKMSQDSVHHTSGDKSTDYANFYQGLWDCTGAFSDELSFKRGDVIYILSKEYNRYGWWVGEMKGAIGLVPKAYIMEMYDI
UniProt Q8N196: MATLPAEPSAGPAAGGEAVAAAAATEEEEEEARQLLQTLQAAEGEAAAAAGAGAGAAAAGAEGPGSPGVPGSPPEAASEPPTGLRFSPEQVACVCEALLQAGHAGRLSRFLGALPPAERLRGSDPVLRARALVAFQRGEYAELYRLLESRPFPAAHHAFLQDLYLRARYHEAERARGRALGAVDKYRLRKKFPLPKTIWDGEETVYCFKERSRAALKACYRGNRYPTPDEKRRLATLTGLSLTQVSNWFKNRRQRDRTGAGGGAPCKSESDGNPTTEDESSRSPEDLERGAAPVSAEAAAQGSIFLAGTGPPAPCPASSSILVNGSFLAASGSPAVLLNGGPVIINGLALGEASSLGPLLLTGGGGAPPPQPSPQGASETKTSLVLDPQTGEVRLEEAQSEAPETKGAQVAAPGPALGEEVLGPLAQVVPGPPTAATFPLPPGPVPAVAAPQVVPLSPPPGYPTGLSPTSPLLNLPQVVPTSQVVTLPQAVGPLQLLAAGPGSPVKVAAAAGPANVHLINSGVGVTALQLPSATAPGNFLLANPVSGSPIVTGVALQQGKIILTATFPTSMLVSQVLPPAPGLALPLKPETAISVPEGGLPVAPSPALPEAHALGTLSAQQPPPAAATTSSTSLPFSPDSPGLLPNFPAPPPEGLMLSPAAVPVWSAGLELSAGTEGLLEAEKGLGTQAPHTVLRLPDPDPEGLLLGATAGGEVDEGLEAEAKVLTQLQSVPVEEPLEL
UniProt P04279: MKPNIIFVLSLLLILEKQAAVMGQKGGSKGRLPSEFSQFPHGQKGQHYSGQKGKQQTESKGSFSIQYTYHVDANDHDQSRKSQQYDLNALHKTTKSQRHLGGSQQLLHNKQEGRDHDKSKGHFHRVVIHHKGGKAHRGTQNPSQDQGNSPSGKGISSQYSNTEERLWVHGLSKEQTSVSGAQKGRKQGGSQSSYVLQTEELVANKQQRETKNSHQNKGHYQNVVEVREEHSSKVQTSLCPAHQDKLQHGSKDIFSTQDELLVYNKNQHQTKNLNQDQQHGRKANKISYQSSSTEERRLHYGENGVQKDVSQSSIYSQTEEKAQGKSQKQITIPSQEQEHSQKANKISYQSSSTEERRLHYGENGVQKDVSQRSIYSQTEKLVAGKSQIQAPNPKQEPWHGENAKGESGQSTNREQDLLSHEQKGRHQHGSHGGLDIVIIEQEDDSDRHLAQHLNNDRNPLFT
UniProt P05546: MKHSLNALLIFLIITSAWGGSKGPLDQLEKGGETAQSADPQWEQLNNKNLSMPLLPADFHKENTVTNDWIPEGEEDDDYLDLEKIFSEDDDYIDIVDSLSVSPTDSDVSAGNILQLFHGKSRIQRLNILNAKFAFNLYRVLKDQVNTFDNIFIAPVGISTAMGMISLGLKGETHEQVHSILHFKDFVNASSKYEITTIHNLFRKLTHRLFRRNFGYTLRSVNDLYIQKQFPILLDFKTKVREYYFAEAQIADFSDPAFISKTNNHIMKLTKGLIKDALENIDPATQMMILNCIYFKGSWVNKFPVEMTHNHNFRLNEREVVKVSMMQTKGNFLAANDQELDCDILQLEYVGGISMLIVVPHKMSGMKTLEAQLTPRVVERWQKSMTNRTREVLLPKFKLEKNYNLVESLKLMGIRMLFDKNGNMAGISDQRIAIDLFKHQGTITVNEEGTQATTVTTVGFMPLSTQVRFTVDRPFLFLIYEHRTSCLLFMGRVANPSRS
UniProt P36952: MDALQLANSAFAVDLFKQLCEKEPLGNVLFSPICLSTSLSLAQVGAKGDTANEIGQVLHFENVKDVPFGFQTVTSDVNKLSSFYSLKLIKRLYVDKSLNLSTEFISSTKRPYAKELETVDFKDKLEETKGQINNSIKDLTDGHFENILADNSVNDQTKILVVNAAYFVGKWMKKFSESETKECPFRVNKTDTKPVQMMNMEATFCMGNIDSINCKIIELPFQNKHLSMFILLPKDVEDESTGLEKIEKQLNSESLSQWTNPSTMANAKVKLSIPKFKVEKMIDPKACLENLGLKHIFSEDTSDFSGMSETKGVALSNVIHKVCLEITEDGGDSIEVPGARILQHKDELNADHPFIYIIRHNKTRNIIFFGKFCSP
UniProt Q16181: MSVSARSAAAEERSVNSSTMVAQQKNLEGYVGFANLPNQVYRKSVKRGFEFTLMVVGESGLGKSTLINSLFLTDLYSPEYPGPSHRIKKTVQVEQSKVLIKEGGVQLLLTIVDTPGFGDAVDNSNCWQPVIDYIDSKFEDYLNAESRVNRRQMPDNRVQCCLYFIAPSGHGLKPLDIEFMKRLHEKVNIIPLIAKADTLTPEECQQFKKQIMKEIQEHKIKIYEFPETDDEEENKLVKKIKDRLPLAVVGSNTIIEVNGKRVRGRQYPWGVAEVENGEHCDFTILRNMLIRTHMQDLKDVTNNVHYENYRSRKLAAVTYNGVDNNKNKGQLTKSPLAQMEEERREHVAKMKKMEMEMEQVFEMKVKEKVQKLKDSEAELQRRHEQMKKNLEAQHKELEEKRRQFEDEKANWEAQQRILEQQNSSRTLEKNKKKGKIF
UniProt O75635: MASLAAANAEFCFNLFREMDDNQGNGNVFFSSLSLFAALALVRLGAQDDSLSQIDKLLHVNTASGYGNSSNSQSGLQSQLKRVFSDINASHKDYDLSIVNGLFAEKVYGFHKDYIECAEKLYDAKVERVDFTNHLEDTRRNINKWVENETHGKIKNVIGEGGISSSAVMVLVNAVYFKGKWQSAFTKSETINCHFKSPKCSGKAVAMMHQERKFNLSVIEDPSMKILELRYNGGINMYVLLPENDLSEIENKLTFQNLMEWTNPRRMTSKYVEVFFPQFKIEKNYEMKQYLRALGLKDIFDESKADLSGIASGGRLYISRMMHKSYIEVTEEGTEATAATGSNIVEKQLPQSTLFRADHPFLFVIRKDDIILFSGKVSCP
UniProt Q99963: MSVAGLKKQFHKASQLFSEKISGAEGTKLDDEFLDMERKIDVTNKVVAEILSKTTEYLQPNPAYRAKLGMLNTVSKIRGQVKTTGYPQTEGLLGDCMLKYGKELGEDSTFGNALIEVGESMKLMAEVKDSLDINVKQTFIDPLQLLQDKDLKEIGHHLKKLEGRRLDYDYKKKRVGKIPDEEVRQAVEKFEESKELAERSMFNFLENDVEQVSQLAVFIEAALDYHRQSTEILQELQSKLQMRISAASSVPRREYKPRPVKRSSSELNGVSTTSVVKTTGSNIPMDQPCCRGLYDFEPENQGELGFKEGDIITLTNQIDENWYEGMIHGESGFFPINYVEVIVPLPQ
UniProt Q8NC51: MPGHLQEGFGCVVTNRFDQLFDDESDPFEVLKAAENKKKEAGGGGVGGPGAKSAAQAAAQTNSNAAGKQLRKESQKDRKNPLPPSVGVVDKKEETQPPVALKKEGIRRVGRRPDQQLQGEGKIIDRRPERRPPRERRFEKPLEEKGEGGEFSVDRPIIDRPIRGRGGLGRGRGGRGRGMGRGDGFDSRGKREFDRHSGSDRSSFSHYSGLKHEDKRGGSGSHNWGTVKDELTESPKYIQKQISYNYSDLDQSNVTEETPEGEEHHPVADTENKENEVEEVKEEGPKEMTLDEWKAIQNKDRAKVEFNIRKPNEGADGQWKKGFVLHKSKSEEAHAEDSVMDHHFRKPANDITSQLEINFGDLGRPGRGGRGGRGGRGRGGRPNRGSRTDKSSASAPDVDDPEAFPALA
UniProt Q9H0K1: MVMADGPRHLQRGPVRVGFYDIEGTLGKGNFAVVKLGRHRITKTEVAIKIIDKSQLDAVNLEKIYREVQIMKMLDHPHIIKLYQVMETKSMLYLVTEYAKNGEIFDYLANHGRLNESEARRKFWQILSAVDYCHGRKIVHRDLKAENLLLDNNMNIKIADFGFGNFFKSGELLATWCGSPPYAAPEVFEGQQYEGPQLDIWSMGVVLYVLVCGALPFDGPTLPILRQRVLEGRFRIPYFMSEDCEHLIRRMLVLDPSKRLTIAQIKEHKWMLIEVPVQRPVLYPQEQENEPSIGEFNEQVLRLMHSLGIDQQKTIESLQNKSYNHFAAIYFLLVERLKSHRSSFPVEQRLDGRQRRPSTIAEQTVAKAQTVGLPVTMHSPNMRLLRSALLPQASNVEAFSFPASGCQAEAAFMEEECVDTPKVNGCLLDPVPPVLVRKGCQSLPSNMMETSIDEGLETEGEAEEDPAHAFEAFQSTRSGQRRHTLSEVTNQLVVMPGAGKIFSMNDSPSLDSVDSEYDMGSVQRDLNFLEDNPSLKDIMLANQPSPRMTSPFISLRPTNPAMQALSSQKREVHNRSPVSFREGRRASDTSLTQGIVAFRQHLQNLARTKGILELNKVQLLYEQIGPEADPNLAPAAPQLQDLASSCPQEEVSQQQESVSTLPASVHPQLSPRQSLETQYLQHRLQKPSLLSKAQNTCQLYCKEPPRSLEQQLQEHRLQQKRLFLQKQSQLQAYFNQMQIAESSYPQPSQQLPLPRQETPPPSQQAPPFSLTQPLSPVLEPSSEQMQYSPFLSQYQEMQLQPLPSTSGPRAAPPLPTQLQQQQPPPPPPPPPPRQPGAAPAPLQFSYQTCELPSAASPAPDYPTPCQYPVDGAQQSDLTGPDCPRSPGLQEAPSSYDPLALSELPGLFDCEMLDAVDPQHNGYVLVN
UniProt P60059: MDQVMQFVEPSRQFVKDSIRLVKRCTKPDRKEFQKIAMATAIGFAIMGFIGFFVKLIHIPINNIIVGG
UniProt Q9ULL8: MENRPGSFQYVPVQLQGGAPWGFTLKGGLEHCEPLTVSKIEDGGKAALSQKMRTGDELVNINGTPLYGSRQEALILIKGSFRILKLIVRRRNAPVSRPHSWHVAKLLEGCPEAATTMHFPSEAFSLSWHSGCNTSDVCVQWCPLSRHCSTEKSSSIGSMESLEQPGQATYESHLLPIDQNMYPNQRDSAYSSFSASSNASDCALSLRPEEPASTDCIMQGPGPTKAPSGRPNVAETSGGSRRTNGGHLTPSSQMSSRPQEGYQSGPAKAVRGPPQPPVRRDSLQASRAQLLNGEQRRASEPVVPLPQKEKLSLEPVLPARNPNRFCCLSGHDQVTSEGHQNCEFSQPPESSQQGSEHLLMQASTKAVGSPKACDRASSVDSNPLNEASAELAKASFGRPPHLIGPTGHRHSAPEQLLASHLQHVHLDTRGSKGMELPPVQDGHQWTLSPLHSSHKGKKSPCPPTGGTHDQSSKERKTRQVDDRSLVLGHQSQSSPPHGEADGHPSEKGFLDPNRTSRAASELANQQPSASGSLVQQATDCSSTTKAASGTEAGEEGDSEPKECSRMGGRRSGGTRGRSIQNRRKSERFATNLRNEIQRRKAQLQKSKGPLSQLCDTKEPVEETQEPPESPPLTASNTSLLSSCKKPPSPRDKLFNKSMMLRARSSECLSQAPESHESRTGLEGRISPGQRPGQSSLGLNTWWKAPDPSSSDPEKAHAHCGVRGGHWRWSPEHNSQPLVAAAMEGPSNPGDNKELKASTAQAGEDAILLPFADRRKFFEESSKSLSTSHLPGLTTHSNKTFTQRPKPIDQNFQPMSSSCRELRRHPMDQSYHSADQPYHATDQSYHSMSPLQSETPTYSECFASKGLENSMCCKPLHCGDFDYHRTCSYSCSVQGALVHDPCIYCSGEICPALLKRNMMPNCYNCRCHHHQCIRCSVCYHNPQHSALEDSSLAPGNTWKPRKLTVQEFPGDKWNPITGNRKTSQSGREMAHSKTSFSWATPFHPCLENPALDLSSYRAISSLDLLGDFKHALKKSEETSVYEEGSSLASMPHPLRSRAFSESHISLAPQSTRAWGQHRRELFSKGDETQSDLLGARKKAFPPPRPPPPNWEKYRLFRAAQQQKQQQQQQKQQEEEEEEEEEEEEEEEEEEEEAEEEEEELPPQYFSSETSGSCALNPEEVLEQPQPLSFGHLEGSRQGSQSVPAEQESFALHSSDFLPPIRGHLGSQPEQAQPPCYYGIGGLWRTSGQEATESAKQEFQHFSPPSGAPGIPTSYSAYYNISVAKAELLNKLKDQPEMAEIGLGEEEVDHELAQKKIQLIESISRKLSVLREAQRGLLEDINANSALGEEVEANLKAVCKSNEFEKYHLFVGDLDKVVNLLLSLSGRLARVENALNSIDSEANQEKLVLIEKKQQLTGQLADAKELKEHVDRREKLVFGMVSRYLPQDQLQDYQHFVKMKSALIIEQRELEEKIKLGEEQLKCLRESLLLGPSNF

The other results are listed elsewhere or left out.

Compound in this experiment: O=C(O)c1ccc2c(c1)nc(Nc1cccc(Cl)c1)c1ccncc12 [silmitasertib]
Description: log2 fold change, soluble protein after heating vs DMSO (PISA); higher = thermal stabilisation; K562 cells, 10 uM, 30 min; active = over 0.2 and 3.5 SD of the protein, either way, in both replicates (recomputed). The method in brief: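 Soluble protein was quantified by TMTpro 16plex LC-MS/MS after channel sums were equalised. It was obtained as the supernatant after 21,000xg for 90 min from pooled aliquots of K562 cells (2×10^6 cells/mL, 10 μM compound, 30 min) heated for 3 min across 48°C-58°C and extracted in PBS with 0.5% NP-40 at 4°C. Thermal stability values are relative to control samples and come from duplicates. They are given as log2 fold changes.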
Turning to SIAH2 (UniProt O43255), the log2 fold change was inactive: 0.134. For SECISBP2 (UniProt Q96T21), the log2 fold change is inactive: -0.161.

Turning to SH2D2A isoform 2 (UniProt Q9NP31), the log2 fold change is inactive: 0.006. The value for SKAP2 (UniProt O75563) was inactive: 0.155. In the case of SIX5 (UniProt Q8N196), the log2 fold change was inactive: 0.033. SFXN1 (UniProt D6RDG7): the log2 fold change is inactive: 0.207. As to SEMG1 (UniProt P04279), the log2 fold change is inactive: 0.116. With SH3BGR (UniProt P55822), the log2 fold change was inactive: -0.039.

For SERPIND1 (UniProt P05546), the log2 fold change is inactive: 0.178. As for SERPINB5 (UniProt P36952), the log2 fold change is inactive: 0.005.

For SEPTIN7 isoform 2 (UniProt Q16181), the log2 fold change was inactive: 0.12. For SERPINB7 (UniProt O75635), the log2 fold change is inactive: -0.058. With SIRT3 (UniProt Q9NTG7), the log2 fold change was inactive: -0.056. For SH3GL3 isoform 3 (UniProt Q99963), the log2 fold change is inactive: -0.1. The value for SERBP1 isoform 3 (UniProt Q8NC51) was inactive: 0.09; that for SIK2 (UniProt Q9H0K1) was inactive: 0.221; that for SF1 (UniProt H7C0N4) was inactive: -0.05. Next, SERAC1 (UniProt Q96JX3): inactive: -0.026; SELENOP (UniProt P49908): inactive: 0.101. Regarding SEC61G (UniProt P60059), the log2 fold change is inactive: 0.049. On to SERPINB6, A0A2R8Y7E5, for which the log2 fold change is inactive: 0.08.

Consider SFR1 isoform 2 (UniProt Q86XK3), for which the log2 fold change was inactive: -0.031.

For SHROOM4 (UniProt Q9ULL8), the log2 fold change was inactive: 0.196.
